Measurements taken from the supplement of paper PMC8728848.
Some of the results follow.

Assays:
Assay in all cases: glycan array binding signal (z-score within array); higher = stronger binding
Conditions in all cases: glycan notation: IUPAC condensed, linker removed
[1] = molecular target: Man(a1-2)Man(a1-3)[Man(a1-6)]Man(a1-6)[Man(a1-2)Man(a1-3)]Man(b1-4)GlcNAc(b1-4)GlcNAc
How it was run: (§1)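 The Consortium for Functional Glycomics database supplied 3228 glycan arrays, of which those lacking an available protein sequence were dropped. The binding signal, a within-array Z-score, was averaged across arrays of the same protein sequence and across linkers. Negative scores can be read as non-binding.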

[2] = molecular target: Man(a1-2)Man(a1-6)[Man(a1-3)]Man(a1-6)[Man(a1-2)Man(a1-2)Man(a1-3)]Man
How it was run: as §1

[3] = molecular target: Man(a1-2)Man(a1-6)[Man(a1-3)]Man(a1-6)[Man(a1-2)Man(a1-2)Man(a1-3)]Man(b1-4)GlcNAc(b1-4)GlcNAc
How it was run: as §1

Man(a1-3)[Man(a1-6)]Man = molecular target: Man(a1-3)[Man(a1-6)]Man
How it was run: as §1

[4] = molecular target: Man(a1-3)[Man(a1-6)]Man(a1-6)[Man(a1-2)Man(a1-3)]Man(b1-4)GlcNAc(b1-4)GlcNAc
How it was run: as §1

[5] = molecular target: Man(a1-3)[Man(a1-6)]Man(a1-6)[Man(a1-3)]Man
How it was run: as §1

[6] = molecular target: Man(a1-3)[Man(a1-6)]Man(a1-6)[Man(a1-3)]Man(b1-4)GlcNAc(b1-4)GlcNAc
How it was run: as §1

[7] = molecular target: Man(a1-3)[Man(a1-6)]Man(b1-4)GlcNAc(b1-4)GlcNAc
How it was run: as §1

Man(a1-6)Man = molecular target: Man(a1-6)Man
How it was run: as §1

Man(b1-4)GlcNAc = molecular target: Man(b1-4)GlcNAc
How it was run: as §1

Neu5Ac(a2-3)Gal = molecular target: Neu5Ac(a2-3)Gal
How it was run: as §1

[8] = molecular target: Neu5Ac(a2-3)Gal(b1-3)GalNAc
How it was run: as §1

[9] = molecular target: Neu5Ac(a2-3)Gal(b1-3)GalNAc(b1-3)Gal(a1-4)Gal(b1-4)Glc
How it was run: as §1

[10] = molecular target: Neu5Ac(a2-3)Gal(b1-3)GalNAc(b1-4)[Neu5Ac(a2-3)]Gal(b1-4)Glc
How it was run: as §1

[11] = molecular target: Neu5Ac(a2-3)Gal(b1-3)GalNAc(b1-4)[Neu5Ac(a2-8)Neu5Ac(a2-3)]Gal(b1-4)Glc
How it was run: as §1

[12] = molecular target: Neu5Ac(a2-3)Gal(b1-3)GalNAc6S
How it was run: as §1

[13] = molecular target: Neu5Ac(a2-3)Gal(b1-3)GlcNAc
How it was run: as §1

[14] = molecular target: Neu5Ac(a2-3)Gal(b1-3)GlcNAc(b1-3)Gal(b1-3)GlcNAc
How it was run: as §1

[15] = molecular target: Neu5Ac(a2-3)Gal(b1-3)GlcNAc(b1-3)Gal(b1-4)GlcNAc
How it was run: as §1

[16] = molecular target: Neu5Ac(a2-3)Gal(b1-3)GlcNAc(b1-3)GalNAc
How it was run: as §1

[17] = molecular target: Neu5Ac(a2-3)Gal(b1-3)GlcNAc6S
How it was run: as §1

[18] = molecular target: Neu5Ac(a2-3)Gal(b1-3)[Fuc(a1-4)]GlcNAc
How it was run: as §1

[19] = molecular target: Neu5Ac(a2-3)Gal(b1-3)[Fuc(a1-4)]GlcNAc(b1-3)Gal(b1-3)[Fuc(a1-4)]GlcNAc
How it was run: as §1

[20] = molecular target: Neu5Ac(a2-3)Gal(b1-3)[Fuc(a1-4)]GlcNAc(b1-3)Gal(b1-4)[Fuc(a1-3)]GlcNAc
How it was run: as §1

[21] = molecular target: Neu5Ac(a2-3)Gal(b1-3)[Neu5Ac(a2-3)Gal(b1-4)]GlcNAc
How it was run: as §1

[22] = molecular target: Neu5Ac(a2-3)Gal(b1-3)[Neu5Ac(a2-6)]GalNAc
How it was run: as §1

Neu5Ac(a2-3)Gal(b1-4)Glc = molecular target: Neu5Ac(a2-3)Gal(b1-4)Glc
How it was run: as §1

[23] = molecular target: Neu5Ac(a2-3)Gal(b1-4)GlcNAc
How it was run: as §1

[24] = molecular target: Neu5Ac(a2-3)Gal(b1-4)GlcNAc(b1-2)Man(a1-3)[GlcNAc(b1-2)Man(b1-4)GlcNAc(b1-2)Man(a1-6)]Man(b1-4)GlcNAc(b1-4)GlcNAc
How it was run: as §1

[25] = molecular target: Neu5Ac(a2-3)Gal(b1-4)GlcNAc(b1-2)Man(a1-3)[Neu5Ac(a2-6)Gal(b1-4)GlcNAc(b1-2)Man(a1-6)]Man(b1-4)GlcNAc(b1-4)GlcNAc
How it was run: as §1

B1: RetS (Pseudomonas aeruginosa), Q9HUV7 (protein)
chain: MVRLRIAIGLLVSFLLLLLGPMSPAVADDAGVSSVPLQTTATTPSANQNWRLLRDESAQLRIADVLQRKEQFRPLAKRSFIFPASPQAVWLQVQLPAQKVPSWLWIFAPRVQYLDYYLVQDGQLVRDQHTGESRPFQERPLPSRSYLFSLPVDGKPMTLYVRMTSNHPLMAWFDQIDEAGLVGLEKPAYAFGMLLGGMLLLLMYNLIRFAYSRSASSLWLAAVHAALAVCAAANLGLVAFWLPGLKFNQSLTADLGALGAAVSLLWFACSFFRGTAESRLNRLLQGEALLILAVGAIIAFTQQLWFSWLIYLLVILSSLSVPLIAAWHWYRGYQPARLIVAGMIVFNAGFMVFLPVLFGTKQLDPGWLVLGVFSFATLAGLVLSVSLTERQRLIQQLNLQQRTSEAAHTAELQTKAEFLAKISHEIRTPMNGVLGMTELLLGTPLSAKQRDYVQTIHSAGNELLTLINEILDISKLESGQIELDEVQFDLNALIEDCLDIFRVKAEQQRIELISFTQPQVPRVIGGDPTRLRQVVLSLLDNAFKQTEEGEILLVVALDDQGETPRLRIAVQDSGHPFDAKEREALLTAELHSGDFLSASKLGSHLGLIIARQLVRLMGGEFGIQSGSSQGTTLSLTLPLDPQQLENPTADLDGPLQGARLLVVDDNETCRKVLVQQCSGWGLNVSAVSSGKEALAQLRTKAHLREYFDVVLLDQDMPGMTGMQLAAKIKEDPNLNHDILLIMLTGISNAPSKIIARNAGIKRILAKPVAGYTLKATLADELAQRGVSGVTNYLQPAKEAQAPSLPSDFRILVAEDNSISTKVIRGMLNKLNLQPDTASNGQEALSAMKATQYDLVLMDCEMPVLDGFSATEQLRAWEAHEQRPHTPVVALTAHILSEHKERARLVGMDGHMAKPVELSQLRELIAYWVGERDRRRQGDALPS
- glycan array binding signal (z-score) [1]: 0.409
- glycan array binding signal (z-score) [2]: -1.18
- glycan array binding signal (z-score) [3]: -0.927
- glycan array binding signal (z-score) (Man(a1-3)[Man(a1-6)]Man): -1.2
- glycan array binding signal (z-score) [4]: -0.192
- glycan array binding signal (z-score) [5]: 0.706
- glycan array binding signal (z-score) [6]: 0.027
- glycan array binding signal (z-score) [7]: 0.502
- glycan array binding signal (z-score) (Man(a1-6)Man): 0.013
- glycan array binding signal (z-score) (Man(b1-4)GlcNAc): -1.04
- glycan array binding signal (z-score) (Neu5Ac(a2-3)Gal): -0.963
- glycan array binding signal (z-score) [8]: -0.269
- glycan array binding signal (z-score) [9]: 0.556
- glycan array binding signal (z-score) [10]: 0.174
- glycan array binding signal (z-score) [11]: -1.1
- glycan array binding signal (z-score) [12]: -0.232
- glycan array binding signal (z-score) [13]: -0.654
- glycan array binding signal (z-score) [14]: -0.613
- glycan array binding signal (z-score) [15]: -0.057
- glycan array binding signal (z-score) [16]: -0.17
- glycan array binding signal (z-score) [17]: 1.92
- glycan array binding signal (z-score) [18]: -1.94
- glycan array binding signal (z-score) [19]: -0.834
- glycan array binding signal (z-score) [20]: 0.331
- glycan array binding signal (z-score) [21]: -0.141
- glycan array binding signal (z-score) [22]: 1.21
- glycan array binding signal (z-score) (Neu5Ac(a2-3)Gal(b1-4)Glc): -0.669
- glycan array binding signal (z-score) [23]: 0.356
- glycan array binding signal (z-score) [24]: -0.478
- glycan array binding signal (z-score) [25]: -0.836
